Experimental data taken from publication PMC6599027.
These are yes or no findings as the source states them, for the method shown. Binding seen in cells or lysates may run through a third protein. Some entries that bind do so weakly or less than the wild type. For part of these data: Sequences can lack the tags named with a protein.

T1: NLR Family CARD Domain Containing 5 (NLRC5), endogenous in human aortic smooth muscle cells (human (endogenous in HASMCs)), Q86WI3
T1 chain: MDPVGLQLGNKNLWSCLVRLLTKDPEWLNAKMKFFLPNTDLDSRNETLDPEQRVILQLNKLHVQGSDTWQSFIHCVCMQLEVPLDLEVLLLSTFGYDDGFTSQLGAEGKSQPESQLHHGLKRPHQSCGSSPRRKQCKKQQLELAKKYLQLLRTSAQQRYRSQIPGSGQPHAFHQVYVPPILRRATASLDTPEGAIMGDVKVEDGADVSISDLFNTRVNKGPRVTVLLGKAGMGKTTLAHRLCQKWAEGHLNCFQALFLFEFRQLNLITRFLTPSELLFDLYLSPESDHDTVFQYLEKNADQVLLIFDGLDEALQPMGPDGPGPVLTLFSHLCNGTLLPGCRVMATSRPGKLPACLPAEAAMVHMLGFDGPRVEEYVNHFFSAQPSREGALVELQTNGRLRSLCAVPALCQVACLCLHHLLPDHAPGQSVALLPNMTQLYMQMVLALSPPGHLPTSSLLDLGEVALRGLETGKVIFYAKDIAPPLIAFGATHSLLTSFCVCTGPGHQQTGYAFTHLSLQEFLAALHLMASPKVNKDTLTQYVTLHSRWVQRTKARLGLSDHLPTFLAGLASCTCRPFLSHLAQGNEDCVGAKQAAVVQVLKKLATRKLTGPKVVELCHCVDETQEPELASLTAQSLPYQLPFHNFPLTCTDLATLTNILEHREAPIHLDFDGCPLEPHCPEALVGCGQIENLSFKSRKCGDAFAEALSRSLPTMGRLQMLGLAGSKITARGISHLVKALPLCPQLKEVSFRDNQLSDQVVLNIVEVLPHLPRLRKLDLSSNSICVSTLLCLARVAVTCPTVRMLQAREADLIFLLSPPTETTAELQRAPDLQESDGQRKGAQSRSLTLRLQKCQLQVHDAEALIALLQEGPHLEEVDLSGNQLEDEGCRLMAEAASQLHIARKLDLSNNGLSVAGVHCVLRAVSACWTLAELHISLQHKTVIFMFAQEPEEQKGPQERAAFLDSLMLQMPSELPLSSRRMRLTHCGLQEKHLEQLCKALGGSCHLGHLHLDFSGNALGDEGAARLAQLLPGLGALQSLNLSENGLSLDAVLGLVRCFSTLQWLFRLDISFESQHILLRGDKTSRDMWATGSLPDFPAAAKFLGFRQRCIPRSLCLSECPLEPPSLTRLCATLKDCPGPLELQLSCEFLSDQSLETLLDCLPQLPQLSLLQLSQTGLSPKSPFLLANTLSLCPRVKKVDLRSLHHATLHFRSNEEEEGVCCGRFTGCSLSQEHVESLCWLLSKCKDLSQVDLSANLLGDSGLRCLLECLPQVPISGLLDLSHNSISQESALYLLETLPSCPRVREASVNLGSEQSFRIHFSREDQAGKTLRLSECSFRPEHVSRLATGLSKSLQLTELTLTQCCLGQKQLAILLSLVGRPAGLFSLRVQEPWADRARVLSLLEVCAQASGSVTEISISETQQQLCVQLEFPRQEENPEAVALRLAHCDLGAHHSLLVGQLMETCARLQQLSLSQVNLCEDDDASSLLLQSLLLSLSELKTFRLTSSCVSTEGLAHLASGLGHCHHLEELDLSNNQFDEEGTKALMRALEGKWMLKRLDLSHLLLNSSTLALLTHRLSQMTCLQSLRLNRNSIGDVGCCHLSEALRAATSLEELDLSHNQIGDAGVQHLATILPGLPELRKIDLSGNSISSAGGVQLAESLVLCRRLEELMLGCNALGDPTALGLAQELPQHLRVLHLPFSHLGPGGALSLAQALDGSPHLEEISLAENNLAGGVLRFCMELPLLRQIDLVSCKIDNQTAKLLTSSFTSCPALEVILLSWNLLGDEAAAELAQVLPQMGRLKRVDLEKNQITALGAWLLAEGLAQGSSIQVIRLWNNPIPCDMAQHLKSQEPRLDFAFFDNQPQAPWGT


Assays:
Flag-PPARγ = Flag-PPARγ (UniProt P37231); assay: co-IP; HEK293T cells co-transfected with myc-tagged NLRC5 or its mutants and Flag-tagged PPARγ or PPARγ-LBD; lysate after 24-h transfection; co-immunoprecipitation of myc and Flag, immunoblot
[1] = target: T1, NLR Family CARD Domain Containing 5 …; assay: co-IP; endogenous proteins in HASMC lysate; 500 μg lysate with 5 μg primary antibody at 4 °C overnight, protein A/G agarose, immunoblot; cells with or without PDGF-BB (10 ng/ml), pioglitazone (10 nM), siCtr or siNLRC5; anti-IgG as negative control; conditions: remark: other sources report otherwise

binding (Flag-PPARγ)	binding [1]	Binder
no binding	–	myc-NLRC5 DD (domain or fragment, UniProt Q86WI3 1-221) MDPVGLQLGNKNLWSCLVRLLTKDPEWLNAKMKFFLPNTDLDSRNETLDPEQRVILQLNKLHVQGSDTWQSFIHCVCMQLEVPLDLEVLLLSTFGYDDGFTSQLGAEGKSQPESQLHHGLKRPHQSCGSSPRRKQCKKQQLELAKKYLQLLRTSAQQRYRSQIPGSGQPHAFHQVYVPPILRRATASLDTPEGAIMGDVKVEDGADVSISDLFNTRVNKGP
–	binds	PPARγ, endogenous in human aortic smooth muscle cells, P37231 1-505 (protein) MGETLGDSPIDPESDSFTDTLSANISQEMTMVDTEMPFWPTNFGISSVDLSVMEDHSHSFDIKPFTTVDFSSISTPHYEDIPFTRTDPVVADYKYDLKLQEYQSAIKVEPASPPYYSEKTQLYNKPHEEPSNSLMAIECRVCGDKASGFHYGVHACEGCKGFFRRTIRLKLIYDRCDLNCRIHKKSRNKCQYCRFQKCLAVGMSHNAIRFGRMPQAEKEKLLAEISSDIDQLNPESADLRALAKHLYDSYIKSFPLTKAKARAILTGKTTDKSPFVIYDMNSLMMGEDKIKFKHITPLQEQSKEVAIRIFQGCQFRSVEAVQEITEYAKSIPGFVNLDLNDQVTLLKYGVHEIIYTMLASLMNKDGVLISEGQGFMTREFLKSLRKPFGDFMEPKFEFAVKFNALELDDSDLAIFIAVIILSGDRPGLLNVKPIEDIQDNLLQALELQLKLNHPESSQLFAKLLQKMTDLRQIVTEHVQLLQVIKKTETDMSLHPLLQEIYKDLY
binds	–	myc-NLRC5 NACHT (domain or fragment, UniProt Q86WI3 222-539) RVTVLLGKAGMGKTTLAHRLCQKWAEGHLNCFQALFLFEFRQLNLITRFLTPSELLFDLYLSPESDHDTVFQYLEKNADQVLLIFDGLDEALQPMGPDGPGPVLTLFSHLCNGTLLPGCRVMATSRPGKLPACLPAEAAMVHMLGFDGPRVEEYVNHFFSAQPSREGALVELQTNGRLRSLCAVPALCQVACLCLHHLLPDHAPGQSVALLPNMTQLYMQMVLALSPPGHLPTSSLLDLGEVALRGLETGKVIFYAKDIAPPLIAFGATHSLLTSFCVCTGPGHQQTGYAFTHLSLQEFLAALHLMASPKVNKDTLTQ
